{"source": "patent US20230392180A1", "about": "“MICROSCOPIC IMAGING AND ANALYSES OF EPIGENETIC LANDSCAPE” (Sanford Burnham Prebys Medical Discovery Institute, priority 2020, published 2023)", "origin": "cited, not measured here", "conditions": "cited from earlier work", "note": "Structures can show the parent of a compound that is named as a salt. At least one structure is not confirmed: it was looked up by name or label, or the drawing left a doubt.", "data": [{"compound": "C[C@@H]1C[C@H]2[C@@H]3CCC4=CC(=O)C=C[C@]4(C)[C@@]3(F)[C@@H](O)C[C@]2(C)[C@@]1(O)C(=O)COS(=O)(=O)O", "note": "[dexamethasone sulfate]", "values": [{"measurement": "placental transfer", "value": "readily cross the placenta"}]}]}
